The source of these data is PMC7429868.

Protein sequences, listed by entry. Tags and fused reporters are not part of them.
UniProt P09936: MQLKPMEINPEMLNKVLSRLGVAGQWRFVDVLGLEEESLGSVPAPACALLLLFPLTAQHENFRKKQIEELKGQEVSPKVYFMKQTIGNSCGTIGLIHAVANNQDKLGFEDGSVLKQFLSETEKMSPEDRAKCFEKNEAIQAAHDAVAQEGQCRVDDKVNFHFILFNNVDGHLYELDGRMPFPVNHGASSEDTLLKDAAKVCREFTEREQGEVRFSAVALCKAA
UniProt P16671: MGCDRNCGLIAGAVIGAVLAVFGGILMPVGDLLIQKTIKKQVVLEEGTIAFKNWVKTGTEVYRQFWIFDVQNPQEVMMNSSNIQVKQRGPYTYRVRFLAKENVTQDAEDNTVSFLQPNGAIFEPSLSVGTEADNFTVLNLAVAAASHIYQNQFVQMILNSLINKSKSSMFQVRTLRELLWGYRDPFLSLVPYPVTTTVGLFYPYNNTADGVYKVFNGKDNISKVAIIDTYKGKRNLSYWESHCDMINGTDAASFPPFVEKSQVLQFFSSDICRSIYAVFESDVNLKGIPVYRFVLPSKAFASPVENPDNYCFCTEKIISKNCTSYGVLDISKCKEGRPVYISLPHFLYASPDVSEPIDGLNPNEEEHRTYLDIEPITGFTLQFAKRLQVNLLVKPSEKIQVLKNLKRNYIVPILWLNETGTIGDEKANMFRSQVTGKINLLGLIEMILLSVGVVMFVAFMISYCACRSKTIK

No constants are given. Whether binding was seen depends on the method and setting. In cells and extracts the contact can be indirect. Some results given as binding are weak or reduced against the parent protein; the word gives no strength.

The test concerns the target Ubiquitin C-terminal hydrolase 1 (UCHL1) (not stated (endogenous; human THP1, murine RAW264.7 or mouse peritoneal macrophages were used in the paper)) (UniProt P09936). The test is described as follows: co-IP; antibody (anti-CD36 or anti-UCHL1) bound to dynabeads for 16-24 h, rotated with cell lysate for 1 h, washed with PBS-T, western blot for the other protein; endogenous proteins. Background: Immunoblotting shows a protein as a band on a membrane.

Regarding “CD36 (scavenger receptor) (from UniProt P16671 1-472)”, the binding entry is reported as “binds”.
